The source of these data is patent US8686024B2, “Indoline derivatives” (priority 2009, dated 2014).

Turning to `CC(C)(C)c1ccc(NC(=O)Oc2ccc3c(c2)CCN3Cc2ccccc2)cc1`, the melting point (as a rule, the temperature of the solid-liquid transition) is 175 to 178 °C.
